This note sets out measurements from publication PMC11380446.

Sequences of proteins named here, by UniProt entry; tags and fusion partners are left off.
UniProt P13010: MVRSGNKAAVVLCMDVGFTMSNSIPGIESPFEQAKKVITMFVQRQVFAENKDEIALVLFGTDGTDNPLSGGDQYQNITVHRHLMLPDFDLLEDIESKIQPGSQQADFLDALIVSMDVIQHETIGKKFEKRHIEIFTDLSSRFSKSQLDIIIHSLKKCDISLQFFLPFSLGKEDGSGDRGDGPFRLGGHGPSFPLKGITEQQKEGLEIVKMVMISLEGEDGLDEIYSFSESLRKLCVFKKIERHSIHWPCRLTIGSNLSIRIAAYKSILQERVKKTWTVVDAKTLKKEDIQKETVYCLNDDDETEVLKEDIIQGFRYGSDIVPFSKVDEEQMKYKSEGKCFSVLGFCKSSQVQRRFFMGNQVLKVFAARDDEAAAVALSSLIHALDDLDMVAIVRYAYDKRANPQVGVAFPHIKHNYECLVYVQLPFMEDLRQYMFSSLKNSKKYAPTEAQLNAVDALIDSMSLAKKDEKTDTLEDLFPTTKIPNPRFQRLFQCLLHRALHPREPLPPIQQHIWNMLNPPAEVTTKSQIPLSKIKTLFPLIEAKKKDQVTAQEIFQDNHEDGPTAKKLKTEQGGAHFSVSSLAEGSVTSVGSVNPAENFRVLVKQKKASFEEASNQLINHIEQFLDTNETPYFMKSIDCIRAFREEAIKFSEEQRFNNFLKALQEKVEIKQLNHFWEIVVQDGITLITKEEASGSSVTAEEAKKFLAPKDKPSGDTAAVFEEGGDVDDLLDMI
UniProt P09874: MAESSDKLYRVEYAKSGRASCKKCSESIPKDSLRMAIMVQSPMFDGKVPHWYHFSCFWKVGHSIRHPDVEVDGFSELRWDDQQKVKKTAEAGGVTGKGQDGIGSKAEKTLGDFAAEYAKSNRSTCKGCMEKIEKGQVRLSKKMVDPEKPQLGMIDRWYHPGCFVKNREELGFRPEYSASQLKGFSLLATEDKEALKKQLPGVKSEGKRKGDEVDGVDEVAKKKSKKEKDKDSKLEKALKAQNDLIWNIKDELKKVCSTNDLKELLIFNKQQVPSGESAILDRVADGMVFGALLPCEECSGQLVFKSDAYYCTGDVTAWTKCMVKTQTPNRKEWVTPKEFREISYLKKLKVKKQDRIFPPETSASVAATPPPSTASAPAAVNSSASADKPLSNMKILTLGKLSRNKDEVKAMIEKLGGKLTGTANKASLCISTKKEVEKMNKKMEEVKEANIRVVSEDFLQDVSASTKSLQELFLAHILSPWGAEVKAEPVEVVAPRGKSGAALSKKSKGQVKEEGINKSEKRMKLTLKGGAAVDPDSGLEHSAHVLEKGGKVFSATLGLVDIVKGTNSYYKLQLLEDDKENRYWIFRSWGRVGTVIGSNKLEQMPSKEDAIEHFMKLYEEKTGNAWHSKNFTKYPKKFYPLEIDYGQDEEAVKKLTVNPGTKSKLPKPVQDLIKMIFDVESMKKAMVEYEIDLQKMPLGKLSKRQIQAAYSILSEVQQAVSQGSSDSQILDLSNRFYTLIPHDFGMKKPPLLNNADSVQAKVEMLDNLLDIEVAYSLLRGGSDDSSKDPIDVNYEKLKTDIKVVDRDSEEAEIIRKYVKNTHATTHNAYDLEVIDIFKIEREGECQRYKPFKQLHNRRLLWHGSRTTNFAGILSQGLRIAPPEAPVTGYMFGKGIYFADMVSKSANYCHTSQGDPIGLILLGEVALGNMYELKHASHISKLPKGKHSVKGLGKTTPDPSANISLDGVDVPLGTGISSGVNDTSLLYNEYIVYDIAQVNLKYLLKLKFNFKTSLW

These are yes or no findings as the source states them, for the method shown. In cells and extracts the contact can be indirect. Some results given as binding are weak or reduced against the parent protein; the word gives no strength.

Assay [1] addresses full-length Ku80, 3×FLAG-tagged (UniProt P13010). Put plainly: co-IP; HEK293T cells transfected with 3×FLAG-tagged Ku80 constructs for 48 h; FLAG Co-IP, IB for PARP1.
The target of assay [2] is Ku80 (human (endogenous in SKOV3)) (UniProt P13010). Description: co-IP; endogenous proteins; SKOV3 (for Ku80-XLF-APLF also OVCAR3) lysed in IP lysis buffer, IgG or 1-4 μg IP antibody overnight at 4 °C, protein A/G magnetic beads 2 h at 4 °C, washed with PBST, IB; cells untreated or treated with DMSO, CDK12i 50 nM, Olaparib 10 μM or both for 2 days; also 0.01% MMS 1 h or 80 μM CCCP 2 h.

Assay [3] addresses PARP1 (human (endogenous in SKOV3)) (UniProt P09874). Described as above.
The target in assay [4] is recombinant 6×His-PARP1 protein (UniProt P09874). Put plainly: pull-down; recombinant 6×His-PARP1 (2 μg per sample) incubated overnight with lysates of HEK293T cells transfected with FLAG-Ku80 constructs; His tag-conjugated beads 2 h at 4 °C, washed three times; only the target purified.

Turning to “PARP1 (in HEK293T cells) (from UniProt P09874 1-1014)”, the binding result in assay [1] is “binds”.
Consider PARP1 (from UniProt P09874 1-1014), for which, in assay [2], the binding entry is listed as “binds”.
Ku80 (from UniProt P13010 1-732): the binding result in assay [3] was “binds”.
Regarding “full-length Ku80, 3×FLAG-tagged (from UniProt P13010 1-732)”, the binding entry in assay [4] is reported as “binds”.
